Values of other authors as cited in patent US20050208084A1, “Use of alkylamidomandelates as flavourings” (priority 2002, published 2005).
At least one structure is not confirmed: it was looked up by name or label, or the drawing left a doubt.

Details: cited from earlier work

SMILES: O=C(/C=C/C=C/c1ccc2c(c1)OCO2)N1CCCCC1 [piperine, 1-piperoylpiperidine]
- relative pungency compared with capsaicin: approx. 1%
